Results published in publication PMC11069146.
No constants are given. Whether binding was seen depends on the method and setting. Binding seen in cells or lysates may run through a third protein. These calls come from enrichment with a bait or labelling near it, and not all partners need be listed. For part of these data: Tags and fused reporters may be left off the sequences shown.

The chains behind the UniProt entries cited, without tags or fusion partners.
UniProt Q93009: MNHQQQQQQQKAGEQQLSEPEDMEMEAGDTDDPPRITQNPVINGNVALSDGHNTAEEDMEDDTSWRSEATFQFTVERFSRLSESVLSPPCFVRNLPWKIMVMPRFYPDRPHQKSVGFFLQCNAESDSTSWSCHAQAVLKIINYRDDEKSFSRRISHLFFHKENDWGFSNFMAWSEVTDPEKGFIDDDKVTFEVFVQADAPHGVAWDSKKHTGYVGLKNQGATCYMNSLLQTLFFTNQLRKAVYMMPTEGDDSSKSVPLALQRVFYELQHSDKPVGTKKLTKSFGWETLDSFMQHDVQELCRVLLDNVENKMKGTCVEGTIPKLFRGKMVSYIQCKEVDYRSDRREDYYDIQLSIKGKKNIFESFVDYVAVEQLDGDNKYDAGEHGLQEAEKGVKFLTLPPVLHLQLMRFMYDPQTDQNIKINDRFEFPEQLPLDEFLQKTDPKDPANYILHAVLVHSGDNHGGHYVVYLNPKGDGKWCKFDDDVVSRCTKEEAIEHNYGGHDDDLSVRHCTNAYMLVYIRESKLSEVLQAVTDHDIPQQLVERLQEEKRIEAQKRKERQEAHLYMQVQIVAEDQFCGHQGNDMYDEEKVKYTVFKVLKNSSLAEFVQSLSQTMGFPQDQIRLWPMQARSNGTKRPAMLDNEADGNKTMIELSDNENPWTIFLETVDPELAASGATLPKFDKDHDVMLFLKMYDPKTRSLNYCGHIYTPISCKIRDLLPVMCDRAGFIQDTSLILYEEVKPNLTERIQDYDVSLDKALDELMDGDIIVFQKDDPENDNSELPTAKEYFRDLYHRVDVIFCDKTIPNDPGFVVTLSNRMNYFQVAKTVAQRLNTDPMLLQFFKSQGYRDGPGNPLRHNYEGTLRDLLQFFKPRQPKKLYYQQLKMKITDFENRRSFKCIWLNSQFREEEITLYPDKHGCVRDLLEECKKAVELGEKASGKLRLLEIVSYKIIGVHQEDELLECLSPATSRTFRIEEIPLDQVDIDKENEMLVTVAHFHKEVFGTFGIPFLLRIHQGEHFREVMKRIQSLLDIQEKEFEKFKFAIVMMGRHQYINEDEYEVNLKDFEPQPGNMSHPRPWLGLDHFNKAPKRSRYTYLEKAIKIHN
UniProt P19474: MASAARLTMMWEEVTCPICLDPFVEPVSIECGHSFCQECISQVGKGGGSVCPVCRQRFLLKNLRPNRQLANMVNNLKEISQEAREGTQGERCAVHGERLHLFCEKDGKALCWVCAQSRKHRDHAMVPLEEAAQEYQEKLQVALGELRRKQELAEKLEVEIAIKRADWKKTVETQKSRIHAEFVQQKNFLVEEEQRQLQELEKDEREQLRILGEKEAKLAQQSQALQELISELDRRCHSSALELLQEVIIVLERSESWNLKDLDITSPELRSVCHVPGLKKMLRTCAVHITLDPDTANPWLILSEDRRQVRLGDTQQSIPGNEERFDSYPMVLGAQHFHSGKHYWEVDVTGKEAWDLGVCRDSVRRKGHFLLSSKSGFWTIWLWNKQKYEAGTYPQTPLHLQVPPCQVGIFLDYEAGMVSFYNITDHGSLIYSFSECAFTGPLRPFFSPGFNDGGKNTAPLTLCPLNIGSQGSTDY

How the values were obtained:
[1] = target: Ubiquitin-specific protease 7 (human (endogenous in RD and A204)) (UniProt Q93009); experiment: affinity purification with mass spectrometry; USP7-co-IPed protein complex analysed by mass spectrometry (Fig. S4A); cells and antibody not stated
FLAG-tagged SNAI2 = target: T1, FLAG-tagged SNAI2 (UniProt O43623); experiment: affinity purification with mass spectrometry; whole-cell extracts from RD cells stably expressing FLAG-SNAI2 purified on an anti-FLAG affinity column; SDS-PAGE, silver staining; bands analysed by mass spectrometry
T1 sequence: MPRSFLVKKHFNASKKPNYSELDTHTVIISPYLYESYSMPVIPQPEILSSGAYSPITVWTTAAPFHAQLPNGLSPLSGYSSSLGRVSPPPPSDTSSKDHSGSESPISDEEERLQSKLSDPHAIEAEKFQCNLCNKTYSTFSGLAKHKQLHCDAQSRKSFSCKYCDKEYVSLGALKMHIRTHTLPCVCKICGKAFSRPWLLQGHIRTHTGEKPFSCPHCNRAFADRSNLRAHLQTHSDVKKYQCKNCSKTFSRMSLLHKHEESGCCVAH

binding [1] | binding (FLAG-tagged SNAI2) | Substance
binds | binds | E3 ubiquitin ligase TRIM21 (from UniProt P19474 1-475) (enzyme)
 | binds | Ubiquitin-specific protease 7 (from UniProt Q93009 1-1102) (enzyme)
